{"source": "paper PMC10660311", "about": "(ACS Chemical Biology, 2023)", "key": {"[1]": {"assay": "general procedure: Fmoc solid-phase peptide synthesis; Tentagel S AC", "conditions": "whole synthesis"}, "[2]": {"assay": "Fmoc solid-phase peptide synthesis; Tentagel S AC", "conditions": "whole synthesis, scale of the general procedure 25-50 μmol; run 1"}}, "data": [{"substance": "CF-Pro-Leu-Ala-Glu-Cys(5-O-adenosine-diphosphate-α-D-ribosyl)-Lys-Gly-Ser-Leu-OH", "values": [{"measurement": "isolated mass", "setting": "[1]; scale 25 μmol", "result": 1.85, "unit": "mg"}, {"measurement": "isolated yield", "setting": "[1]; scale 25 μmol", "result": 4.0, "unit": "%"}]}, {"substance": "CF-Arg-Pro-Thr-Pro-Cys-Ala-Pro-Leu-Ala-Glu-Cys(5-O-adenosine-diphosphate-α-D-ribosyl)-Lys-Gly-Ser-Leu-OH", "values": [{"measurement": "isolated mass", "setting": "[1]; scale 50 μmol", "result": 2.4, "unit": "mg"}, {"measurement": "isolated yield", "setting": "[1]; scale 50 μmol", "result": 2.0, "unit": "%"}]}, {"substance": "CF-Arg-Pro-Thr-Pro-Cys(5-O-adenosine-diphosphate-α-D-ribosyl)-Ala-Pro-Leu-Ala-OH", "values": [{"measurement": "isolated mass", "setting": "[1]; scale 25 μmol", "result": 3.86, "unit": "mg"}, {"measurement": "isolated yield", "setting": "[1]; scale 25 μmol", "result": 8.3, "unit": "%"}]}, {"substance": "CF-Arg-Pro-Thr-Pro-Cys(5-O-adenosine-diphosphate-α-D-ribosyl)-Ala-Pro-Leu-Ala-Glu-Cys-Lys-Gly-Ser-Leu-OH", "values": [{"measurement": "isolated mass", "setting": "[1]; scale 50 μmol", "result": 2.8, "unit": "mg"}, {"measurement": "isolated yield", "setting": "[1]; scale 50 μmol", "result": 2.3, "unit": "%"}]}, {"substance": "CF-RPTPC(ADPr)APLAEC(ADPr)KGSL-OH", "values": [{"measurement": "isolated mass", "setting": "[1]", "result": 6.72, "unit": "mg"}, {"measurement": "outcome", "setting": "[1]; scale of the general procedure 25-50 μmol", "result": "Target peptide 1 bearing two ADP-ribosyl-Cys residues, however, could not be prepared in this way"}, {"measurement": "isolated yield", "setting": "[1]; scale of the general procedure 25-50 μmol, run 2", "result": 4.5, "unit": "%"}, {"measurement": "isolated yield", "setting": "[2]", "result": 4.4, "unit": "%"}]}]}
